About 22,000 (6.9%) of roughly 320,000 compounds were called active. This list was built around the results that the source calls inconclusive (neither active nor inactive); the mix of calls is not that of the screen. Calls come from the whole dose curve; as a rule, active = well fitted inhibition curve with a large enough effect; inconclusive = small, poorly fitted or top-dose-only effect, or another doubt; inactive = no such curve, though single readings can be large or run the other way. A potency beside an inconclusive call is a rough fit, not a confirmed value.
test: Primary qHTS for delayed death inhibitors of the malarial parasite plastid, 96 hour incubation; details: P. falciparum luciferase reporter growth; series mostly up to 28.7 µM
In short: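 Compounds incubated with erythrocytes infected by luciferase-expressing P. falciparum (2% hematocrit, 0.05% parasitemia final) for 96 hours, 37 C in 5% CO2. Growth inhibition scored as decreased luciferase luminescence.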
Potency is the fitted concentration of half-maximal effect.

Structure (SMILES)	Potency
O=C(O)CCCC(=O)Nc1ccccc1Br	inconclusive: 5.22 µM [inhibitor, partial curve, poor fit]
COc1ccc(OC)c(N/C(C)=C/C(=O)c2ccc(Br)cc2)c1	inconclusive: 5.86 µM [inhibitor, partial curve, poor fit]
COc1cc(CNCCc2ccc(S(N)(=O)=O)cc2)ccc1OCC(=O)NC(C)(C)C	active: 13.1 µM
CCc1nnc(SCC(=O)Nc2ccc(C(C)=O)cc2)nc1CC	inconclusive: 9.28 µM [inhibitor, single point]
Oc1ccc(/C=N/N=C/c2ccc(O)c(O)c2)cc1O	inconclusive: 9.28 µM [inhibitor, single point]
CCN1CCN(C(=S)NCc2ccc(C)cc2)CC1	inconclusive: 18.5 µM [inhibitor, single point]
CC(=O)c1cccc(NC(=O)N2CCCC2C(=O)NCCC(C)C)c1 (centres undefined)	inconclusive: 10.4 µM [inhibitor, single point]
C=CCNC(=O)N1CCC(n2nccc2NC(=O)CCc2ccccc2)CC1	inconclusive: 18.5 µM [inhibitor, single point]
Cc1ccc(C(=O)Nc2ccc(Cl)cc2C(F)(F)F)c(Cl)c1	inactive
CCOC(=O)N1CCC(n2c(SCC(=O)NCCC3=CCCCC3)nc3ccccc3c2=O)CC1	inconclusive: 18.5 µM [inhibitor, single point]
COc1ccc(/C=C/C(=O)Nc2ccc3c(c2)CCC3)cc1OC	inactive
CCOC(=O)C1=CC[C@H]2c3c(c4ccccc4n3C)C(=O)C1N2C	inconclusive: 2.94 µM [inhibitor, single point]
O=C(Nc1ccccc1F)C1CCCN1S(=O)(=O)c1cccc2nsnc12 (centres undefined)	inconclusive: 18.5 µM [inhibitor, single point]
CCn1nc(C(=O)OCC(=O)c2ccc3c(c2)OCCO3)c2ccccc2c1=O	inconclusive: 16.5 µM [inhibitor, single point]
CCc1c(C)nc2cc(C)[nH]n2c1=O	active: 3.7 µM
CCCC[C@]12Cc3cc(C#N)ccc3C(O1)c1c(cc(C)n(-c3ccccc3)c1=O)O2	inconclusive: 0.338 µM [inhibitor, full curve, poor fit]
O=C(COC(=O)COc1ccc(Cl)cc1)Nc1ccc(N2CCOCC2)cc1	inactive
O=C(OC1C[C@@H]2CC3C[C@H](C1)N2CC3=O)c1c[nH]c2ccccc12 (some centres undefined)	active: 13.5 µM
Cn1cnnc1SCC(=O)Nc1ccc2nc(SCc3ccccc3Cl)sc2c1	inconclusive: 11.7 µM [inhibitor, single point]
Cc1nnc2ccc(N3CCN(c4ccccn4)CC3)nn12	inconclusive: 10.4 µM [inhibitor, single point]
COc1ccc(CNCc2ccc(C(F)(F)F)cc2)cc1OC	inconclusive: 18.5 µM [inhibitor, single point]
COc1ccc(CCNS(=O)(=O)CCNC(=O)c2ccc3c(c2)OCO3)cc1OC	inconclusive: 14.7 µM [inhibitor, single point]

Structure (SMILES)	Potency
COc1cc(/C=N/NC(N)=O)ccc1OCC(=O)N1C(C)CCCC1C (centres undefined)	inconclusive: 18.5 µM [inhibitor, single point]
CCC(C)[C@H](NC(=O)[C@H](Cc1ccccc1)n1c(=O)[nH]c2ccccc2c1=O)C(=O)N1CCC[C@@H]1C(=O)O (some centres undefined)	inconclusive: 18.5 µM [inhibitor, single point]
O=C(C(Cc1ccccc1)n1cccc1)N1CCN(c2ncccn2)CC1 (centres undefined)	inconclusive: 18.5 µM [inhibitor, single point]
CC1(c2ccccc2)NC(=O)N(CC(=O)NCc2cccc(Cl)c2)C1=O (centres undefined)	inactive
O=C(O)CNS(=O)(=O)c1ccc(Br)s1	inactive
COC(=O)c1ccc(C23CC4(C2)[C@H](CN(CC2CCCCC2)[C@@H]4c2ccccc2)C3c2ccc(Cl)nc2)cc1 (some centres undefined)	active: 9.28 µM
COc1ccc(Cl)cc1NC(=O)c1cc(-c2ccco2)on1	inactive
CN(CC(=O)NCc1ccco1)S(=O)(=O)c1ccc(F)cc1	inactive
COCCCN1C(=O)CC(C(=O)OC)=C1C	inactive
Cc1ccc(C)c(CSc2nnc(C)c(=O)n2N)c1	inconclusive: 0.0738 µM [inhibitor, full curve, poor fit]
COc1cc(NC(=O)Cc2ccccc2)ccc1NC(=O)c1ccco1	inconclusive: 4.15 µM [inhibitor, single point]
C/C(=N\NC(=O)Cn1c(C)nc2ccccc21)c1cccs1	inconclusive: 14.7 µM [inhibitor, single point]
Cc1cc(C)cc(N(CC(=O)NC2CCCC2)C(=O)CNC(=O)c2ccco2)c1	inconclusive: 14.7 µM [inhibitor, single point]
Cc1ccc2c(c1)C(=O)C(=O)N2CC1COc2ccccc2O1 (centres undefined)	inactive
CCOC(=O)NN=C1CCC(c2ccccc2)CC1 (centres undefined)	inconclusive: 18.5 µM [inhibitor, single point]
CCOC(=O)CON1C(=O)C(C)(C)N(OCC(=O)OCC)C(=O)C1(C)C	inconclusive: 18.5 µM [inhibitor, single point]
O=c1[nH]c2ccc(S(=O)(=O)Nc3ccc(Cl)cc3)cc2[nH]1	inconclusive: 16.5 µM [inhibitor, single point]
C=CCN1C(=O)NC(=O)/C(=C/C=C/c2ccccc2)C1=O	inconclusive: 20.8 µM [inhibitor, partial curve, poor fit]
CC1(C)C(=O)Nc2ccccc2N1C(=O)COC(=O)c1cc([N+](=O)[O-])ccc1N	inconclusive: 18.5 µM [inhibitor, single point]
COc1ccc(NC(=O)CSc2nc3c(sc4ccccc43)c(=O)n2CCCN2CCCC2)cc1	inconclusive: 10.4 µM [inhibitor, single point]
CCOc1ccc(NC(=O)C(CC(=O)O)Cc2ccc(C)cc2)cc1 (centres undefined)	inactive
COc1ccc(P(=O)(COc2ccc([N+](=O)[O-])cc2)c2ccc(OC)cc2)cc1	inconclusive: 18.5 µM [inhibitor, single point]

A few values from the entries so far.
Potency, `C/C(=N\NC(=O)Cn1c(C)nc2ccccc21)c1cccs1` reads inconclusive: 14.7 µM [inhibitor, single point]
Potency, `CCc1nnc(SCC(=O)Nc2ccc(C(C)=O)cc2)nc1CC` reads inconclusive: 9.28 µM [inhibitor, single point]

Source: PubChem BioAssay AID504834 (National Center for Advancing Translational Sciences (NCATS), 2011)
